Values joined by “and” are separate entries in the source; they are usually repeats but may differ in a detail not shown here. Equal values may be shown once. This is one part of the list. This data set is noisy: repeats of one test often differ as much as different tests do.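 HEK293T cells were given each compound shortly before transfection with a reporter in which red mCherry is followed by the SARS-CoV-2 frameshift element and then GFP in the −1 frame, so GFP appears only after frameshifting.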
Tested on: HEK293T
Experiment: percent viability (nuclei count) relative to control; higher = more viable cells
Settings: 10 µM; 24 h

**Q.** Which percent viability does the source give for `CCOC(=O)[C@H](CCc1ccccc1)N[C@H]1CCc2ccccc2N(CC(=O)O)C1=O` here?
**A.** 174%

**Q.** `Cc1cc(CC(C)CC(C)(C)C)n(O)c(=O)c1` (centres undefined) [piroctone] was tested. Which percent viability did it give?
**A.** 33.4%

**Q.** For `O=C(NC[C@H]1CN(c2ccc(N3CCOCC3=O)cc2)C(=O)O1)c1ccc(Cl)s1` [Rivaroxaban], which percent viability is on record?
**A.** 279%

**Q.** Which percent viability does the source give for `Clc1cc(-c2ccccc2)ccc1OCCCN1CCOCC1` [chlordimorine] here?
**A.** 110%

**Q.** `CNS(=O)(=O)Cc1ccc2[nH]cc(CCN(C)C)c2c1` [Sumatriptan Succinate] was tested. Which percent viability did it give?
**A.** 249%

**Q.** `Clc1ccc(COC(Cn2ccnc2)c2ccc(Cl)cc2Cl)cc1` (centres undefined) was tested. Which percent viability did it give?
**A.** 182%

**Q.** For `N[C@@H](Cc1ccc(O)cc1)C(=O)O` [tyrosine], which percent viability is on record?
**A.** 301%

**Q.** Which percent viability does the source give for `C=C1C[C@H]2[C@@H]3C=C(C)C4=CC(=O)CC[C@]4(C)[C@H]3CC[C@]2(C)[C@@]1(OC(C)=O)C(C)=O` here?
**A.** 118%

**Q.** For `CC[C@@H](C(=O)[C@@H](C)[C@@H](O)[C@H](C)CCc1ccc(C)c(O)c1C(=O)O)[C@H]1O[C@](CC)([C@H]2CC[C@](O)(CC)[C@H](C)O2)C[C@@H]1C` [lasalocid], which percent viability is on record?
**A.** 122%

**Q.** With `O=C(O)c1ccc(-n2nc(-c3ccccc3O)nc2-c2ccccc2O)cc1` [Exjade] as the molecule, how does the percent viability read?
**A.** 238%

**Q.** How did the percent viability turn out when `CCCCOC(=O)c1ccc(N)cc1` was run?
**A.** 114%

**Q.** `CN1[C@@H](CC(=O)c2ccccc2)CCC[C@H]1C[C@H](O)c1ccccc1` [lobeline] was tested. Which percent viability did it give?
**A.** 212% and 198%

**Q.** Which percent viability does the source give for `O=NN(CCCl)C(=O)NCCCl` [carmustine] here?
**A.** 309%

**Q.** `CC[N+]1(CC)CCC(=C(c2ccccc2)c2ccccc2)C1C` (centres undefined) [prifinium bromide] was tested. Which percent viability did it give?
**A.** 176%

**Q.** For `CCCCCCOC(=O)NC(=N)c1ccc(NCc2nc3cc(C(=O)N(CCC(=O)OCC)c4ccccn4)ccc3n2C)cc1` [Dabigatran etexilate], which percent viability is on record?
**A.** 111%

**Q.** With `CC(N/C(=N\C#N)Nc1ccncc1)C(C)(C)C` (centres undefined) [Pinacidil] as the molecule, how does the percent viability read?
**A.** 332%

**Q.** Which percent viability does the source give for `CN1CCCC(n2nc(Cc3ccc(Cl)cc3)c3ccccc3c2=O)CC1` (centres undefined) here?
**A.** 342%

**Q.** How did the percent viability turn out when `CS(=O)(=O)c1ccc([C@@H](O)[C@@H](CO)NC(=O)C(Cl)Cl)cc1` [thiamphenicol] was run?
**A.** 278%

**Q.** `CN1CC(=O)N2[C@H](c3ccc4c(c3)OCO4)c3[nH]c4ccccc4c3C[C@@H]2C1=O` was tested. Which percent viability did it give?
**A.** 152%

**Q.** How did the percent viability turn out when `CCCCC(CC)COc1ccc(-c2nc(-c3ccc(OC)cc3)nc(-c3ccc(OCC(CC)CCCC)cc3O)n2)c(O)c1` (centres undefined) [bemotrizinol] was run?
**A.** 164%

**Q.** For `O=C(/C=C/C=C/c1ccc2c(c1)OCO2)N1CCCCC1`, which percent viability is on record?
**A.** 158%

**Q.** For `CC[C@@H]1C(=O)OC[C@@H]1Cc1cncn1C`, which percent viability is on record?
**A.** 101%

**Q.** `O=C1OC(CN2CCOCC2)CN1/N=C/c1ccc([N+](=O)[O-])o1` (centres undefined) [furaltadone] was tested. Which percent viability did it give?
**A.** 117%

**Q.** `Nc1ccc(S(=O)(=O)Nc2cncc(Cl)n2)cc1` [sulfaclozine] was tested. Which percent viability did it give?
**A.** 201%

**Q.** `CC1=NS(=O)(=O)c2cc(Cl)ccc2N1` was tested. Which percent viability did it give?
**A.** 137%

**Q.** For `O=C(OOC(=O)c1ccccc1)c1ccccc1`, which percent viability is on record?
**A.** 368%

**Q.** How did the percent viability turn out when `NC(=O)N=Nc1ccc2ccccc2c1O` [naftazone] was run?
**A.** 317%

**Q.** `NC(=O)c1cnccn1` [pyrazinamide] was tested. Which percent viability did it give?
**A.** 133%

**Q.** Which percent viability does the source give for `CC(=O)[C@@]1(O)CC[C@H]2[C@@H]3CCC4=CC(=O)C=C[C@]4(C)[C@H]3[C@@H](O)C[C@@]21C` [deprodone] here?
**A.** 193%

**Q.** Which percent viability does the source give for `CN[C@@H]1[C@H](O[C@H]2[C@H](O[C@H]3[C@H](O)[C@@H](O)[C@H](N=C(N)N)[C@@H](O)[C@@H]3N=C(N)N)O[C@@H](C)[C@]2(O)C=O)O[C@@H](CO)[C@H](O)[C@H]1O` here?
**A.** 151%

**Q.** Which percent viability does the source give for `CC1(c2ccccc2)CC(=O)N(CN2CCOCC2)C1=O` (centres undefined) [morsuximide] here?
**A.** 205%

**Q.** For `CN1C[C@@H]2C[C@H]1CN2c1cc2c(cc1F)c(=O)c(C(=O)O)cn2C1CC1` [danofloxacin], which percent viability is on record?
**A.** 142%

**Q.** `CC(NNC(=O)c1ccccc1)c1ccccc1` (centres undefined) [benmoxin] was tested. Which percent viability did it give?
**A.** 164%

**Q.** How did the percent viability turn out when `Nc1nc(O)c2ncn(CCC(CO)CO)c2n1` [Penciclovir] was run?
**A.** 259%

**Q.** How did the percent viability turn out when `CN1C(C(=O)Nc2ccccn2)=C(O)c2sc(Cl)cc2S1(=O)=O` [Lornoxicam] was run?
**A.** 28.2%

**Q.** Which percent viability does the source give for `CO/N=C(\C(=O)N[C@@H]1C(=O)N2C(C(=O)[O-])=C(C[n+]3ccn4ncccc43)CS[C@H]12)c1nsc(N)n1` [cefozopran] here?
**A.** 220%

**Q.** How did the percent viability turn out when `COc1ccc(C(=O)Nc2c(Cl)cncc2Cl)cc1OC1CCCC1` [piclamilast] was run?
**A.** 92.7%

**Q.** `CC(=O)N(CC(O)CO)c1c(I)c(C(=O)NCCO)c(I)c(C(=O)NCC(O)CO)c1I` (centres undefined) [ioxilan] was tested. Which percent viability did it give?
**A.** 212%

**Q.** With `CC(C)(C)CC(C)(C)c1ccc(O)c(Cc2ccc(Cl)cc2Cl)c1` [clofoctol] as the molecule, how does the percent viability read?
**A.** 49.9%

Source: the supplement of paper PMC8256030
